The text below walks through data of PubChem BioAssay AID330 (DTP/NCI, 2004).

The list is a part of this screen's results and no random one: it gathers some chemical classes. Not every dose and run of a compound is shown. T/C: endpoint of the treated group in % of that of the vehicle group. For survival time, this PubChem deposit counts one and a half times the control or more as active, and values a quarter to a half above the control carry no call in these data; other NCI protocols may use other cut-offs. Schedule codes are those of the source, read here as Q, the interval in days (D) or hours (H), X, the number of doses. Some entries show no survivor count and are marked so; the dose need not have been tolerated. Some entries hold several experiments; the values are given in rising order.

In this assay the test system is P388 leukemia ip, CD2F1 mice, survival T/C. The assay can be described thus: NCI In Vivo Anticancer Drug Screen. Data for tumor model P388 Leukemia (intraperitoneal) in CD2F1 (CDF1) mice. Particulars: T/C endpoint: median survival time, higher T/C = longer survival.
Setting [1] is: dose: 5.0 mg/kg/injection, schedule: Q04DX002 (ip), vehicle: water.
The mark [2] stands for this setting: dose: 10.0 mg/kg/injection, schedule: Q04DX002 (ip), vehicle: water.
Where [3] appears, read: dose: 20.0 mg/kg/injection, schedule: Q04DX002 (ip), vehicle: water.

`CC(=O)OCC12CCC(C)=CC1OC1C(NCCO)C(O)C2(C)C12CO2` (centres undefined): the T/C was 106 [survivor count not shown] and 107 % of control [survivor count not shown] under setting [1]; 114 [survivor count not shown] and 119 % of control [survivor count not shown] under setting [2]; 116 [survivor count not shown] and 128 % of control [survivor count not shown] under setting [3]; 121 [survivor count not shown] and 128 % of control [survivor count not shown] (dose: 40.0 mg/kg/injection, schedule: Q04DX002 (ip), vehicle: water); 135 % of control [survivor count not shown] (dose: 80.0 mg/kg/injection, schedule: Q04DX002 (ip), vehicle: water).

Consider `C#CCNC1C2OC3C=C(C)CCC3(COC(C)=O)C(C)(C1O)C21CO1` (centres undefined), for which the T/C (dose: 1.25 mg/kg/injection, schedule: Q04DX002 (ip), vehicle: water) was 102 % of control [survivor count not shown]; the T/C (dose: 2.5 mg/kg/injection, schedule: Q04DX002 (ip), vehicle: water) was 112 % of control [survivor count not shown]; the T/C under setting [1] was 114 [survivor count not shown] and 119 % of control [survivor count not shown]; the T/C under setting [2] is 123 [survivor count not shown] and 128 % of control [survivor count not shown]; the T/C under setting [3] is 116 [survivor count not shown] and 123 % of control [survivor count not shown].

As for `C/C1=C/C(=O)OCC23CCC4(C)OC4C2OC2CC(OC(=O)/C=C\C=C/C4OC(C1)OC4C)C3(C)C21CO1` (centres undefined), the T/C is 113 % of control [survivor count not shown] (dose: 1.0 mg/kg/injection, schedule: Q01DX009 (ip), vehicle: distilled water + Tween-80); 109 [survivor count not shown] and 111 % of control [survivor count not shown] (dose: 2.0 mg/kg/injection, schedule: Q01DX009 (ip), vehicle: distilled water + Tween-80); 115 [survivor count not shown] and 123 % of control [survivor count not shown] (dose: 4.0 mg/kg/injection, schedule: Q01DX009 (ip), vehicle: distilled water + Tween-80); 135 [survivor count not shown] and 138 % of control [survivor count not shown] (dose: 8.0 mg/kg/injection, schedule: Q01DX009 (ip), vehicle: distilled water + Tween-80); 148 % of control [survivor count not shown] (dose: 16.0 mg/kg/injection, schedule: Q01DX009 (ip), vehicle: distilled water + Tween-80); 172 % of control [survivor count not shown] (dose: 32.0 mg/kg/injection, schedule: Q01DX009 (ip), vehicle: distilled water + Tween-80).

Turning to `CC1CCOC(=O)/C=C/C=C/C(=O)OC2CC3OC4C5OC5(CO)CCC4(COC(=O)C1O)C2(C)C31CO1` (centres undefined), the T/C by setting is: (dose: 0.12 mg/kg/injection, schedule: Q01DX009 (ip), vehicle: saline + alcohol) 160 % of control [survivor count not shown]; (dose: 0.25 mg/kg/injection, schedule: Q01DX009 (ip), vehicle: saline + alcohol) 169 % of control [survivor count not shown]; (dose: 0.5 mg/kg/injection, schedule: Q01DX009 (ip), vehicle: saline + alcohol) 150 % of control [survivor count not shown]; (dose: 1.0 mg/kg/injection, schedule: Q01DX009 (ip), vehicle: saline + alcohol) 160 % of control [survivor count not shown]; (dose: 2.0 mg/kg/injection, schedule: Q01DX009 (ip), vehicle: saline + alcohol) 160 % of control [survivor count not shown]; (dose: 4.0 mg/kg/injection, schedule: Q01DX009 (ip), vehicle: saline + alcohol) 157 % of control [survivor count not shown]. For the same compound, the T/C (dose: 8.0 mg/kg/injection, schedule: Q01DX009 (ip), vehicle: saline + alcohol) is 203 % of control [survivor count not shown].

On to `C/C1=C/C(=O)OCC23CCC4(C)OC4C2OC2CC(OC(=O)/C=C\C=C/C4OC(OC4C)C1O)C3(C)C21CO1` (centres undefined), for which the T/C runs as follows: (dose: 0.04 mg/kg/injection, schedule: Q01DX009 (ip), vehicle: saline + alcohol) 97 % of control [survivor count not shown]; (dose: 0.16 mg/kg/injection, schedule: Q01DX009 (ip), vehicle: saline + alcohol) 100 % of control [survivor count not shown]; (dose: 0.32 mg/kg/injection, schedule: Q01DX009 (ip), vehicle: saline + alcohol) 101 % of control [survivor count not shown]; (dose: 0.63 mg/kg/injection, schedule: Q01DX009 (ip), vehicle: saline + alcohol) 104 % of control [survivor count not shown]; (dose: 1.5 mg/kg/injection, schedule: Q01DX009 (ip), vehicle: saline + alcohol) 102 % of control [survivor count not shown]; (dose: 3.0 mg/kg/injection, schedule: Q01DX009 (ip), vehicle: saline + alcohol) 100 % of control [survivor count not shown]. Besides, the T/C runs as follows: (dose: 6.0 mg/kg/injection, schedule: Q01DX009 (ip), vehicle: saline + alcohol) 101 % of control [survivor count not shown]; (dose: 12.0 mg/kg/injection, schedule: Q01DX009 (ip), vehicle: saline + alcohol) 101 % of control [survivor count not shown].

Consider `CC1=CC2O[C@@H]3C[C@H]4OC(=O)/C=C\C=C\C56OCCC7(OC7C(=O)OCC2(CC1)[C@]4(C)[C@]31CO1)C5OC(O)C6O` (some centres undefined), for which the T/C is 118 % of control [survivor count not shown] (dose: 12.5 micrograms/kg/injection, schedule: Q01DX009 (ip), vehicle: Klucel (hydroxypropylcellulose) (HPC)); 119 % of control [survivor count not shown] (dose: 25.0 micrograms/kg/injection, schedule: Q01DX009 (ip), vehicle: Klucel (hydroxypropylcellulose) (HPC)); 118 % of control [survivor count not shown] (dose: 50.0 micrograms/kg/injection, schedule: Q01DX009 (ip), vehicle: Klucel (hydroxypropylcellulose) (HPC)).

For `CC(=O)OC1(C)CC(=O)OCC23CCC(C)=CC2OC2CC(OC(=O)/C=C/C=C/C(C(C)O)OCC1O)C3(C)C21CO1` (centres undefined), the T/C by setting is: (dose: 5.0 mg/kg/injection, schedule: Q01DX005 (ip), vehicle: saline) 148 % of control [survivor count not shown]; (dose: 10.0 mg/kg/injection, schedule: Q01DX005 (ip), vehicle: saline, evaluated on day 20) 135 % of control [survivor count not shown]; (dose: 20.0 mg/kg/injection, schedule: Q01DX005 (ip), vehicle: saline, evaluated on day 20) 155 % of control [survivor count not shown]; (dose: 20.0 mg/kg/injection, schedule: Q01DX005 (ip), vehicle: saline, evaluated on day 30) 174 % of control [survivor count not shown]; (dose: 40.0 mg/kg/injection, schedule: Q01DX005 (ip), vehicle: saline) 126 % of control [survivor count not shown].

With `CC(O)C1/C=C/C=C/C(=O)OC2CC3OC4C=C(CO)CCC4(COC(=O)C(O)C(C)CCO1)C2(C)C31CO1` (centres undefined), the T/C was 137 % of control [survivor count not shown] (dose: 0.08 mg/kg/injection, schedule: Q01DX009 (ip), vehicle: saline + alcohol); 141 % of control [survivor count not shown] (dose: 0.16 mg/kg/injection, schedule: Q01DX009 (ip), vehicle: saline + alcohol, evaluated on day 30); 185 % of control [survivor count not shown] (dose: 0.16 mg/kg/injection, schedule: Q01DX009 (ip), vehicle: saline + alcohol, evaluated on day 45); 159 % of control [survivor count not shown] (dose: 0.31 mg/kg/injection, schedule: Q01DX009 (ip), vehicle: saline + alcohol, evaluated on day 30); 240 % of control [survivor count not shown] (dose: 0.31 mg/kg/injection, schedule: Q01DX009 (ip), vehicle: saline + alcohol, evaluated on day 45); 206 % of control [survivor count not shown] (dose: 0.62 mg/kg/injection, schedule: Q01DX009 (ip), vehicle: saline + alcohol, evaluated on day 30). Besides, the T/C was 212 % of control [survivor count not shown] (dose: 0.62 mg/kg/injection, schedule: Q01DX009 (ip), vehicle: saline + alcohol, evaluated on day 45); 258 % of control [survivor count not shown] (dose: 1.25 mg/kg/injection, schedule: Q01DX009 (ip), vehicle: saline + alcohol, evaluated on day 30); 166 % of control [survivor count not shown] (dose: 1.25 mg/kg/injection, schedule: Q01DX009 (ip), vehicle: saline + alcohol, evaluated on day 45); 87 % of control [survivor count not shown] (dose: 2.5 mg/kg/injection, schedule: Q01DX009 (ip), vehicle: saline + alcohol).
